The text below walks through data of the supplement of paper PMC10735217.

Molecules are shown by their SMILES. Where a name gives a salt, the structure may show the parent alone. The list shows a part of the results. Single values are uncertain here, since repeats match poorly.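 Human kidney-derived cells stably carry a construct in which eight TEAD-binding elements drive luciferase, measured by luminescence in a drug-repurposing library screen. A hit is any compound whose signal exceeds the plate mean by more than five robust Z scores.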

The subject of this test is HEK293A TEAD-LUC reporter. The test can be described thus: TEAD-luciferase reporter activity (YAP activation), robust Z score vs plate; higher = stronger YAP/TEAD activation. The note with it: 24 h. In general terms: In a reporter assay the amount or activity of a reporter protein is the signal.

Consider `CCc1c(CC(N)=O)c2cc(OCCCP(=O)(O)O)ccc2n1Cc1ccccc1`, for which the TEAD-luciferase reporter activity (compound concentration: 200 nM) is inactive: -1.08, the TEAD-luciferase reporter activity (compound concentration: 2 uM) is inactive: -0.708 and the TEAD-luciferase reporter activity (compound concentration: 10 uM) is inactive: 2.7.
Taken in the same sequence, the figures for `O=C(CC1(c2ccccc2)C2CC3CC1CC(C2)C3O)N1CC(O)C1` (configuration not stated) were inactive: -0.0243, inactive: -1.71 and inactive: 0.175.
As to `CC(=O)NCCCC(=O)N1CCCC2(Cc3ccccc3CN2C(C)=O)C1` (configuration not stated), the TEAD-luciferase reporter activity was inactive: -0.895 (compound concentration: 200 nM) and inactive: 0.897 (compound concentration: 10 uM).
For `COc1cc2c(cc1OC)-c1c/c(=N\c3c(C)cc(C)cc3C)n(C)c(=O)n1CC2`, the TEAD-luciferase reporter activity is, setting by setting: (compound concentration: 200 nM) inactive: -0.893; (compound concentration: 2 uM) inactive: 0.671; (compound concentration: 10 uM) inactive: -1.97.
Taken in the same sequence, the figures for `Cn1c(=O)n(-c2ccc(C(C)(C)C#N)cc2)c2c3cc(-c4cnc5ccccc5c4)ccc3ncc21` [dactolisib] were inactive: -2.23, inactive: -1.56 and inactive: 2.07.
Taken in the same sequence, the figures for `N=C(N)NC(=O)c1cc2c(Cl)cccc2n1CCCS(=O)(=O)O` were inactive: -0.496, inactive: -0.879 and inactive: 0.947.
Turning to `CC1CC(OC(=O)C(OC(=O)c2cccnc2)c2ccccc2)CC(C)(C)C1` (configuration not stated) [Micinicate], the TEAD-luciferase reporter activity runs as follows: (compound concentration: 200 nM) inactive: 1.47; (compound concentration: 2 uM) inactive: -0.862; (compound concentration: 10 uM) inactive: -0.464.
Consider `N=C1N[C@H]2[C@H](CS[C@H]2CCCCC(=O)O)N1` [2-Iminobiotin], for which the TEAD-luciferase reporter activity is inactive: -0.299 (compound concentration: 200 nM) and inactive: -0.0511 (compound concentration: 10 uM).
Consider `CCc1cc(OCc2ccc(-c3ccccc3-c3nnn[nH]3)cc2)c2c(n1)CCCC2`, for which the TEAD-luciferase reporter activity runs as follows: (compound concentration: 200 nM) inactive: 1.64; (compound concentration: 2 uM) inactive: -0.924; (compound concentration: 10 uM) inactive: 4.33.
Taken in the same sequence, the figures for `CC[C@H]1C(=O)Nc2ccc(F)cc2N1C(=O)OC(C)C` [Opaviraline] were inactive: 0.718, inactive: -1.85 and inactive: -0.488.
For the molecule `CN(C)CCC1CCc2cc(OCc3ccc(-c4ccccc4)cc3)ccc2C1` (configuration not stated), the TEAD-luciferase reporter activity is, setting by setting: (compound concentration: 200 nM) inactive: -1.21; (compound concentration: 2 uM) inactive: -0.192; (compound concentration: 10 uM) inactive: 3.64.
As to `Cc1c(O)c(=O)ccn1C`, the TEAD-luciferase reporter activity runs as follows: (compound concentration: 200 nM) inactive: 1.6; (compound concentration: 10 uM) inactive: -0.37.
In the case of `Cc1c(O)c(=O)ccn1C` [deferiprone extended-release], the TEAD-luciferase reporter activity (compound concentration: 2 uM) is inactive: -0.141.
With `CC(C)C[C@H](NP(=O)(O)OCC(O)CO)C(=O)N[C@@H](Cc1c[nH]c2ccccc12)C(=O)O` (some centres not stated), the TEAD-luciferase reporter activity was inactive: -0.146 (compound concentration: 200 nM), inactive: -0.604 (compound concentration: 2 uM) and inactive: 1.13 (compound concentration: 10 uM).
Taken in the same sequence, the figures for `Cn1c(Cn2ccc(C(F)(F)F)c(Oc3cc(Cl)cc(C#N)c3)c2=O)n[nH]c1=O` were inactive: 1.22, inactive: -0.995 and inactive: 2.12.
On to `NC[C@H]1CC[C@H](C(=O)c2ccc(CCC(=O)O)cc2)CC1`, for which the TEAD-luciferase reporter activity by setting is: (compound concentration: 200 nM) inactive: -2.49; (compound concentration: 10 uM) inactive: 1.64.
For the molecule `NC[C@H]1CC[C@H](C(=O)c2ccc(CCC(=O)O)cc2)CC1` [rotraxate], where the note is “compound concentration: 2 uM”, the TEAD-luciferase reporter activity was inactive: 0.108.
In the case of `CN/C(=N\c1ccc(C2=NNC(=O)CC2C)cc1)NC#N` (configuration not stated) [Siguazodan], the TEAD-luciferase reporter activity runs as follows: (compound concentration: 200 nM) inactive: 1.08; (compound concentration: 2 uM) inactive: -0.0485; (compound concentration: 10 uM) inactive: -1.95.
Taken in the same sequence, the figures for `CC(C)n1c(/C=C/[C@@H]2C[C@@H](O)CC(=O)O2)c(-c2ccc(F)cc2)c2ccccc2c1=O` were inactive: 1.59, inactive: 1.47 and inactive: -1.24.
With `CC(=O)N[C@H](Cc1ccc2ccccc2c1)C(=O)N[C@H](Cc1ccc(Cl)cc1)C(=O)N[C@H](Cc1cccnc1)C(=O)N[C@@H](CO)C(=O)N[C@@H](Cc1ccc(O)cc1)C(=O)N[C@H](CCCNC(N)=O)C(=O)N[C@@H](CC(C)C)C(=O)N[C@@H](CCCNC(=N)N)C(=O)N1CCC[C@H]1C(=O)N[C@H](C)C(N)=O` [cetrorelix acetate], the TEAD-luciferase reporter activity (compound concentration: 200 nM) was inactive: 0.0683, the TEAD-luciferase reporter activity (compound concentration: 2 uM) is inactive: -1.09 and the TEAD-luciferase reporter activity (compound concentration: 10 uM) is inactive: -1.32.
Take `CN(C)CCC(c1ccccc1)c1ccccn1` (configuration not stated) [Pheniramine Maleate]: the TEAD-luciferase reporter activity was inactive: -0.176 (compound concentration: 200 nM) and inactive: -0.442 (compound concentration: 10 uM).
As for `CN(C)CCC(c1ccccc1)c1ccccn1` (configuration not stated), the TEAD-luciferase reporter activity (compound concentration: 2 uM) was inactive: -0.713.
With `CC(C)C[C@@H]1NC(=O)[C@H](Cc2ccccc2)N(C)C(=O)[C@@H](CCCNC(=N)N)NC(=O)[C@@H](CCCNC(=N)N)NC(=O)[C@H](C(C)C)NC(=O)[C@H](CC(=O)O)NC1=O`, the TEAD-luciferase reporter activity runs as follows: (compound concentration: 200 nM) inactive: -1.04; (compound concentration: 2 uM) inactive: -0.625; (compound concentration: 10 uM) inactive: 1.42.
Taken in the same sequence, the figures for `C[N+](C)(CCCCCC[N+](C)(C)C1c2ccccc2-c2ccccc21)C1c2ccccc2-c2ccccc21` were inactive: -0.854, inactive: -0.473 and inactive: -1.83.
Consider `CCOC(=O)N1CCN(C(=O)[C@H](Cc2cccc(/C(N)=N\O)c2)NS(=O)(=O)c2c(C(C)C)cc(C(C)C)cc2C(C)C)CC1` [Upamostat], for which the TEAD-luciferase reporter activity reads like this: (compound concentration: 200 nM) inactive: -0.401; (compound concentration: 2 uM) inactive: -0.862; (compound concentration: 10 uM) inactive: 0.787.
Take `CC1(C)CN(CCN2CCN(c3cccc(Cl)c3)C2=O)C1`: the TEAD-luciferase reporter activity was inactive: -1.14 (compound concentration: 200 nM), inactive: 0.0813 (compound concentration: 2 uM) and inactive: -0.786 (compound concentration: 10 uM).
